# PubChem BioAssay AID504808, Drosophila RNAi Screening Center – 2011
# Purpose: 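Fly genes required to hold E2F transcription in check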 (primary screen)
# System: Drosophila S2 cells
# Reagents: long dsRNA against Drosophila genes
# Read-out: 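Firefly luciferase driven by E2F sites, normalised to Renilla luciferase on the same minimal promoter, measured by plate reader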
# Direction: E2F firefly: higher = more E2F reporter activity; Renilla normaliser: higher = more normaliser reporter signal
# Call rule: 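a knock-down counted as active when the firefly/Renilla E2F signal rose above 50%, a threshold chosen arbitrarily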
# The deposit covers about 21,000 reagents; below is a random part of those with a known target gene and a result. Over the whole deposit, 18 (0.084%) were called active. 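Raw counts without plate normalisation, one of two replicates; the ratio scores behind the calls were not deposited.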 Reagents against one gene are numbered here. A plus sign joins genes that one reagent is predicted to hit. Not stated in the record: the amount of reagent, the time to read-out.
Target gene,reagent,"E2F firefly, rep 1","Renilla normaliser, rep 1",activity call
CG32299 + CG32298,1,1.36e5,4193,inactive
CheA87a,1,1.11e5,5088,inactive
CG42699,1,7868,736,inactive
CG42699,2,1.19e5,5319,inactive
CG42700,1,82129,3374,inactive
CG42700,2,1.05e5,4366,inactive
CG33155 + mRpL53,1,1.38e5,4622,inactive
GstE10,1,1.50e5,4770,inactive
Ccp84Ae,1,1.30e5,5723,inactive
CG2811,1,94190,3883,inactive
CG18507,1,1.32e5,6339,inactive
CG18507,2,1.06e5,4127,inactive
CG3213,1,1.47e5,5511,inactive
CG5131,1,1.03e5,4416,inactive
betaCOP,1,1.08e5,6437,inactive
CG5191,1,66471,3340,inactive
CG5191,2,1.41e5,7197,inactive
aop,1,1.48e5,4837,inactive
CG17637,1,1.53e5,7916,inactive
dysc,1,1.09e5,5561,inactive
dysc,2,1.05e5,5553,inactive
Set8,1,77786,3368,inactive
CG13218,1,99710,3996,inactive
Tsen2,1,1.38e5,7007,inactive
gammaSnap1,1,76694,4122,inactive
CG12730,1,1.17e5,4956,inactive
CG16896,1,89293,3521,inactive
Yp3,1,1.70e5,7195,inactive
didum,1,1.52e5,5225,inactive

In a second layout: entries from further up
CG42699 #2 — E2F firefly, rep 1 = 1.19e5; Renilla normaliser, rep 1 = 5319; activity call = inactive
CG42700 #1 — E2F firefly, rep 1 = 82129; Renilla normaliser, rep 1 = 3374; activity call = inactive
CG42700 #2 — E2F firefly, rep 1 = 1.05e5; Renilla normaliser, rep 1 = 4366; activity call = inactive
CG33155 + mRpL53 — E2F firefly, rep 1 = 1.38e5; Renilla normaliser, rep 1 = 4622; activity call = inactive
GstE10 — E2F firefly, rep 1 = 1.50e5; Renilla normaliser, rep 1 = 4770; activity call = inactive
Ccp84Ae — E2F firefly, rep 1 = 1.30e5; Renilla normaliser, rep 1 = 5723; activity call = inactive
CG2811 — E2F firefly, rep 1 = 94190; Renilla normaliser, rep 1 = 3883; activity call = inactive
CG18507 #1 — E2F firefly, rep 1 = 1.32e5; Renilla normaliser, rep 1 = 6339; activity call = inactive
CG18507 #2 — E2F firefly, rep 1 = 1.06e5; Renilla normaliser, rep 1 = 4127; activity call = inactive

Continued:
Target gene,reagent,"E2F firefly, rep 1","Renilla normaliser, rep 1",activity call
row,1,63474,3004,inactive
row,2,1.11e5,4555,inactive
Ir48b,1,92895,4179,inactive
Spn42Db,1,1.39e5,4741,inactive
CG14331,1,1.12e5,6049,inactive
Cdk5alpha,1,1.38e5,5715,inactive
CG18662,1,1.58e5,4944,inactive
CG14483,1,1.29e5,4545,inactive
spi,1,98699,4254,inactive
Jhedup,1,1.30e5,4254,inactive
CG7794,1,1.41e5,6556,inactive
CG3339,1,79390,2368,inactive
CG3339,2,1.11e5,6429,inactive
CG17110,1,1.12e5,5669,inactive
Osi2,1,1.24e5,6800,inactive
Taf11,1,1.13e5,4879,inactive
CG14244,1,1.22e5,6729,inactive
GPHR,1,1.14e5,4469,inactive
CG4757,1,1.37e5,6217,inactive
Mabi,1,1.10e5,4539,inactive
dcma,1,1.38e5,5802,inactive
dcma,2,1.49e5,5450,inactive
Tsp96F,1,1791,956,inactive
CG4066,1,1.57e5,6592,inactive
sloth2 + sloth1,1,1.20e5,6691,inactive
sloth2 + sloth1,2,1.14e5,6123,inactive
Pex10,1,70213,4014,inactive
nAChRalpha3,1,1.15e5,5313,inactive
